# Among all 330,000 compounds or so, about 230 (0.07%) were called active. This list was built around the results that the source calls inconclusive (neither active nor inactive); the mix of calls is not that of the screen.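 The calls were made as follows: active = more than half of a compound's replicate wells show inhibition beyond 50%, single wells judged on their own value; inconclusive = some, but no more than half, of replicates pass 50% inhibition; inactive = no replicate passes 50% inhibition.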
# The chains behind the UniProt entries cited, without tags or fusion partners. Residues count along the entry.
# UniProt Q9H3R0, 1-420 limits assumed: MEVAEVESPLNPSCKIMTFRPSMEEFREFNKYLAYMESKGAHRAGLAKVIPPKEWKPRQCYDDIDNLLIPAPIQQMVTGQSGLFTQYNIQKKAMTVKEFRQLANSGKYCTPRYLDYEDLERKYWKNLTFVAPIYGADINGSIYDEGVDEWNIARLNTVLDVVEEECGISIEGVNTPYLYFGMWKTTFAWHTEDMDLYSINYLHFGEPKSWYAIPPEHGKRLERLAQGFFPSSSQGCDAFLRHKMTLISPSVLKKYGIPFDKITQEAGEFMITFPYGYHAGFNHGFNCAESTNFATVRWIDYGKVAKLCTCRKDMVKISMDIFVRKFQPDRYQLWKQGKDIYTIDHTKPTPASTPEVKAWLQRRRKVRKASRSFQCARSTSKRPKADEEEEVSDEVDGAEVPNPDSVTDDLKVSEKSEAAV
# Target: Lysine-specific demethylase 4C (Homo sapiens) (UniProt Q9H3R0)
# Assay: inhibitors of GASC-1 histone demethylase, primary screen, biochemical, fluorescence, DELFIA europium (AID 2099);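 also: signal counts dimethyl H3K9 product captured on neutravidin plate; 0% = median of DMSO wells and 100% = 0.3 times that DMSO median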
# Settings: GST-JMJD2C(1-420) H3K9me3 demethylation, at 2.35 µM, hits give high values
row,Compound,inhibition
1,COc1cccc(CNC(=O)CSC(=S)N2CCCC2)c1,inconclusive: -175%
2,O=C(Nc1cc2c3c(c1)CC(=O)N3CCC2)C1CCCCC1,inconclusive: -145%
3,Cc1ccc(S(=O)(=O)NCCC(=O)OCC(=O)NCCc2ccccc2)cc1C,inactive: 14.8%
4,Cc1ccc(OC(=O)C2CSC3(C)CCC(=O)N23)c(Br)c1 (stereo not drawn),inconclusive: -208%
5,O=C(O)c1ccc2c(c1)C(=O)N(CCC1=CCCCC1)C2=O,active: 101%
6,O=C(CSc1cn[nH]n1)Nc1nc2ccccc2s1,inactive: 15.2%
7,CN1CCN(c2nc3ccccn3c(=O)c2/C=C(\C#N)S(=O)(=O)c2ccc(Cl)cc2)CC1,active: 89.8%
8,NC(=O)c1ccccc1OCC(=O)N1CCCc2ccccc21,inconclusive: -54.5%
9,CC1CCN(S(=O)(=O)c2ccc3[nH]c(=O)[nH]c3c2)CC1,active: 58.2%
10,Nc1c(C(=O)NCCN2CCOCC2)c2nc3ccccc3nc2n1-c1ccccc1,inactive: 23.6%
11,O=C(O)c1c(-c2ccccc2)nnc2ccccc12,inconclusive: -80.8%
12,O=C(CN1C(=O)S/C(=C\c2ccccc2F)C1=O)NCCCn1ccnc1,inconclusive: -81.5%
13,O=C(CSc1nc2cc(Cl)ccc2s1)c1cc2ccccc2o1,inactive: 3.94%
14,COc1ccc(CCC(=O)N(C)CC(=O)Nc2cc(C)ccc2C)cc1,inactive: -2.88%
15,CC1CCCN(C2(O)C(=O)Nc3c(C(F)(F)F)cccc32)C1 (stereo not drawn),inconclusive: -90.3%
16,CCCNC(=O)c1ccc(N2CCC3(CC2)CC(c2ccccc2)=NO3)c(NC(=O)c2cccc(OC)c2)c1,inconclusive: -232%
17,Cc1cc(C)c2ccc(=S)[nH]c2n1,inactive: -12%
18,COC(=O)C1=CN(c2ccc(F)cc2)C=C(C(=O)OC)C1c1cccc([N+](=O)[O-])c1,inconclusive: -133%
19,Cc1ccc(S(=O)(=O)CCC(=O)Nc2nnc(-c3ccccc3S(C)(=O)=O)o2)cc1,inconclusive: -49.6%
20,Cc1csc2nc(O)c(C(=O)NCCC3=CCCCC3)c(=O)n12,inconclusive: -49%
21,Cc1ccc(-n2cc(CNCCCN3CCCC3=O)c(-c3ccc(F)cc3)n2)cc1,inconclusive: -59.4%
22,Cc1cc(N2C(=O)C(O)=C(C(=O)c3ccco3)C2c2cccc(Cl)c2)no1 (stereo not drawn),inconclusive: -126%

row,Compound,inhibition
1,COc1c(CC=C(C)C)cc(C2CC(=O)c3c(O)cc(O)cc3O2)c(CC=C(C)C)c1O (stereo not drawn),inactive: -1.39%
2,C[C@H](NC(=O)[C@H](Cc1ccccc1)n1c(=O)[nH]c2ccccc2c1=O)C(=O)N1CCC(C(=O)O)CC1,inconclusive: -127%
3,COC(=O)CNC(=O)C(NC(=O)c1ccc(Cl)cc1)C(C)C (stereo not drawn),inconclusive: -152%
4,O=C(Cc1ccccc1)Nc1ccc(-c2nnc(-c3ccco3)o2)cc1,inconclusive: -116%
5,Cc1cccc(N2CCN(C(=O)c3cc4c(=O)[nH]c5ccccc5c4n3C)CC2)c1C,inconclusive: -155%
6,COc1ccccc1OCCCOc1cccc(/C=C2\SC(=O)NC2=O)c1,inactive: 76.2%
7,CCc1nnc(NC(=O)CSc2nnc(Cc3ccccc3)n2-c2ccc(OC)cc2)s1,inconclusive: -107%
8,COc1ccc(Cl)cc1C(=O)Nc1nnn(C)n1,inconclusive: -76.8%
9,CCN(CC)CCCN(C(=O)c1ccccc1C)c1nc(-c2ccc(OC)cc2)cs1,inactive: -1.77%
10,COc1ccc(S(=O)(=O)Nc2cc3c4c(c2)CCN4C(=O)CC3)cc1,inconclusive: -26.2%
11,CC(CC(=O)N1CCN(c2cccc(Cl)c2)CC1)S(=O)(=O)c1ccc2c(c1)NC(=O)CO2 (stereo not drawn),inconclusive: -62.9%
12,CCCc1[nH]nc2c1C1(C(=O)N(CC)c3ccccc31)C(C#N)=C(N)O2 (stereo not drawn),inconclusive: -227%
13,CCOC(=O)c1nn(-c2ccccc2C)c(=O)c(C#N)c1C,inactive: 14.5%
14,O=C(Nc1ccon1)c1ccc(F)c(S(=O)(=O)N2CCCCC2)c1,inactive: -8.92%
15,COc1ccc2[nH]cc(C(=O)C(=O)N3CCCCC3)c2c1,inconclusive: -284%
16,COc1ccc(CCN2CC(C(=O)OCC(=O)Nc3c(C)nn(-c4ccccc4)c3C)CC2=O)cc1OC (stereo not drawn),inconclusive: -128%
17,O=C(Cn1nc(C(=O)O)c2ccccc2c1=O)NCc1ccco1,inconclusive: -76.4%
18,CCCCCCn1c(CN2CCCCC2CC)nc2c1c(=O)n(C)c(=O)n2C (stereo not drawn),inconclusive: -50.4%
19,COc1ccc(C)cc1NC(=O)COC(=O)c1ccccc1SCC(=O)N1CCCC1,inconclusive: -89.8%
20,O=C(O)CN1CCc2ccccc2C1,inactive: 24.7%
21,O=C(Cn1c(=O)sc2ccccc21)Nc1ccc(S(=O)(=O)N2CCCCC2)cc1,inconclusive: -95.2%
22,CCN(CC)C(=O)c1csc(Nc2cccc3ccccc23)n1,inactive: -13.5%

# An excerpt from above in order of number of heavy atoms, ascending.
row,Compound,inhibition
4,Cc1ccc(OC(=O)C2CSC3(C)CCC(=O)N23)c(Br)c1 (stereo not drawn),inconclusive: -208%
17,O=C(Cn1nc(C(=O)O)c2ccccc2c1=O)NCc1ccco1,inconclusive: -76.4%
9,CCN(CC)CCCN(C(=O)c1ccccc1C)c1nc(-c2ccc(OC)cc2)cs1,inactive: -1.77%

# (continued)

row,Compound,inhibition
1,CCN(C(=O)C1CC1)C1CCS(=O)(=O)C1 (stereo not drawn),inconclusive: -136%
2,Cc1cccc2cc(CNCC3CCCO3)c(Cl)nc12 (stereo not drawn),inactive: -0.536%
3,NCCCn1c(C(=O)c2ccc(Cl)cc2)c2ccc([N+](=O)[O-])cc2[n+]1[O-],inactive: 1.03%
4,O=C1CCCC2=C1C(c1ccc(OS(=O)(=O)c3ccc(Cl)cc3)cc1)C1=C(CCCC1=O)O2,active: 56.9%
5,CC(=O)c1ccc(NC(=O)CCc2nc3sc4c(c3c(=O)[nH]2)CCCC4)cc1,inconclusive: -91.4%
6,Cn1c(=O)oc2cc(S(=O)(=O)NCCC(=O)NC3CCCC3)ccc21,inactive: 4.89%
7,CCOc1ccc2nc(SCC(=O)Nc3ccc4[nH]c(=O)[nH]c4c3)[nH]c2c1,inconclusive: -60.3%
8,COc1ccc(-c2cc(=O)oc3c(C)c(OCC(=O)N[C@@H](Cc4ccc(O)cc4)C(=O)O)ccc23)cc1,inconclusive: -241%
9,O=C(C1CCN(Cc2ccc(OCc3ccccc3)cc2)CC1)N1CCCC1,inactive: 0.234%
10,CSc1nc(O)c(C(c2cccc([N+](=O)[O-])c2)c2c(O)nc(SC)[nH]c2=O)c(=O)[nH]1,inconclusive: -102%
11,Cc1ccc(NC(=O)/C=C/c2cccs2)c([N+](=O)[O-])c1,active: 55.6%
12,COc1ccc(CNc2ccc(S(=O)(=O)N3CCN(C)CC3)cn2)cc1OC,inconclusive: -53.8%
13,CC(OC(=O)Cc1c[nH]c2ccccc12)C(=O)NC1(C#N)CCCCC1 (stereo not drawn),inactive: -1.2%
14,Cc1ccc(S(=O)(=O)N(C)C)cc1NC(=O)COC(=O)c1ccc2c(c1)OCCO2,inconclusive: -70.5%
15,COCCCNC(=O)CN1C(=O)CSc2ccc(S(=O)(=O)N3CCOCC3)cc21,inconclusive: -112%
16,O=c1c2ccccc2sc2nc(C3CCCCC3)n(Cc3ccco3)c(=O)c12,inconclusive: -206%
17,CCCCCOC(=O)Cn1c(=O)oc2ccccc21,inactive: -8.9%
18,Cc1ccc(S(=O)(=O)N2CCOC23CCN(S(=O)(=O)c2cccs2)CC3)cc1,inconclusive: -34.2%
19,NS(=O)(=O)c1ccc(CCNC(=O)CSc2ccccc2)cc1,active: 50.8%
20,O=C(c1ccccc1)N1CCCC(c2ccc(Cl)cc2)=N1,inconclusive: -105%
21,CCc1ccc(NC(=O)CCC(=O)N2CCSc3ccccc32)cc1,inactive: -0.749%
22,COc1ccc(C(CNC(=O)c2cc(C)oc2C)N2CCOCC2)cc1 (stereo not drawn),inconclusive: -52.4%

row,Compound,inhibition
1,CCCCn1c(=O)[nH]c(=O)c2c1nc(-c1ccc(C#N)cc1)n2C1CCCC1,inconclusive: -60.8%
2,CCOc1ccc(NC(=O)CN(C)C(=O)c2ccc(OCc3ccccc3)c(OC)c2)cc1OCC,inconclusive: -156%
3,c1ccc2cc(OCCCn3ccnc3)ccc2c1,inactive: 6.4%
4,CCc1nc(NCc2ccco2)c2oc3ccccc3c2n1,inactive: -11.3%
5,Cc1ccccc1NC(=O)CSc1ccc(-c2ccccn2)nn1,inconclusive: -59.7%
6,CCN(C(=O)COC(=O)CSc1cc(C)c2ccccc2n1)c1ccccc1,inconclusive: -41.3%
7,O=C(COC(=O)c1n[nH]c2ccccc12)Nc1ccc(Cl)cc1[N+](=O)[O-],inconclusive: -107%
8,COc1ccc(N2CC(C(=O)Nc3nnc(C4CCCCC4)s3)CC2=O)cc1 (stereo not drawn),inconclusive: -53.6%
9,CCn1c(-c2ccccc2)c(C(=O)CC#N)c2ccccc21,inconclusive: -76%
10,Cc1nc2ncnn2c(C)c1CCC(=O)N1CC(C)CC(C)C1 (stereo not drawn),inconclusive: -50%
11,CCCn1c(SCC(=O)N2CC(=O)Nc3ccccc32)nc2ccccc21,inactive: -3.4%
12,CCCCc1cc(=O)oc2cc(C)cc(OCC(=O)NCc3cccnc3)c12,inconclusive: -158%
13,COC(=O)c1sccc1NC(=S)Nc1cc(OC)ccc1OC,inconclusive: -81.6%
14,CC[N+](C)(CC)CCC(c1ccccc1)C1CCCCC1 (stereo not drawn),inactive: -5.81%
15,CCOc1cc(C(=O)NC2CCCCCCC2)cc(OCC)c1OCC,inconclusive: -80.7%
16,COc1ccc(NC(=O)c2sc(SC)nc2N)cc1,inconclusive: -246%
17,CCOc1ccc(N(CC(=O)NC2CCC(C)CC2)S(=O)(=O)c2c(C)noc2C)cc1 (stereo not drawn),inconclusive: -67.5%
18,Cc1c(C(=O)OCc2ccccc2)[nH]c2c1C(=O)CC(c1ccco1)C2 (stereo not drawn),inactive: 18.5%
19,Cc1ccc(NC(=S)NNC(=O)c2nn(C)cc2Cl)cc1,inconclusive: -44.9%
20,CC1CC(NC(=O)/C(C#N)=C/c2ccc[nH]2)CC(C)(C)C1 (stereo not drawn),inconclusive: -55%
21,O=[N+]([O-])c1ccc(NC2CCCC2)cc1,inactive: 6.17%
22,CN(C)CCOc1ccc(/C(=C(/CCCl)c2ccccc2)c2ccccc2)cc1,inconclusive: -73%

# — PubChem BioAssay AID2099 (Broad Institute, 2009)
